The other results are listed elsewhere or left out.
Columns and labels:
Assay in all cases: glycan array binding signal (z-score within array); higher = stronger binding
Details in all cases: glycan notation: IUPAC condensed, linker removed
[1] = target: Gal(b1-4)GlcNAc(b1-2)Man(a1-6)[Man(a1-3)]Man(b1-4)GlcNAc(b1-4)GlcNAc
How it was run: (§1)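 Glycan array data came from 3228 arrays in the Consortium for Functional Glycomics database, and only arrays with an available protein sequence were kept. Glycan names were put into IUPAC-condensed notation, and columns mapping to the same glycan were averaged. The binding signal is a within-array Z-score, averaged across arrays of one protein sequence run at different concentrations or buffers and across linkers. A negative Z-score can be read as non-binding.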

[2] = target: Gal(b1-4)GlcNAc(b1-2)[Gal(b1-4)GlcNAc(b1-4)]Man(a1-3)[Gal(b1-4)GlcNAc(b1-2)Man(a1-6)]Man(b1-4)GlcNAc(b1-4)GlcNAc
How it was run: as §1

[3] = target: Gal(b1-4)GlcNAc(b1-2)[Gal(b1-4)GlcNAc(b1-4)]Man(a1-3)[Gal(b1-4)GlcNAc(b1-2)[Gal(b1-4)GlcNAc(b1-6)]Man(a1-6)]Man(b1-4)GlcNAc(b1-4)GlcNAc
How it was run: as §1

[4] = target: Gal(b1-4)GlcNAc(b1-2)[Gal(b1-4)GlcNAc(b1-4)]Man(a1-3)[GlcNAc(b1-4)][Gal(b1-4)GlcNAc(b1-2)Man(a1-6)]Man(b1-4)GlcNAc(b1-4)GlcNAc
How it was run: as §1

[5] = target: Gal(b1-4)GlcNAc(b1-2)[Gal(b1-4)GlcNAc(b1-4)]Man(a1-3)[GlcNAc(b1-4)][Gal(b1-4)GlcNAc(b1-2)[Gal(b1-4)GlcNAc(b1-6)]Man(a1-6)]Man(b1-4)GlcNAc(b1-4)GlcNAc
How it was run: as §1

[6] = target: Gal(b1-4)GlcNAc(b1-2)[Gal(b1-4)GlcNAc(b1-6)]Man(a1-6)[Gal(b1-4)GlcNAc(b1-2)Man(a1-3)]Man(b1-4)GlcNAc(b1-4)GlcNAc
How it was run: as §1

[7] = target: Gal(b1-4)GlcNAc(b1-2)[Gal(b1-4)GlcNAc(b1-6)]Man(a1-6)[Gal(b1-4)GlcNAc(b1-2)Man(a1-3)]Man(b1-4)GlcNAc(b1-4)[Fuc(a1-6)]GlcNAc
How it was run: as §1

[8] = target: Gal(b1-4)GlcNAc(b1-2)[Gal(b1-4)GlcNAc(b1-6)]Man(a1-6)[GlcNAc(b1-4)][Gal(b1-4)GlcNAc(b1-2)Man(a1-3)]Man(b1-4)GlcNAc(b1-4)GlcNAc
How it was run: as §1

[9] = target: Gal(b1-4)GlcNAc(b1-2)[Gal(b1-4)GlcNAc(b1-6)]Man(a1-6)[GlcNAc(b1-4)][Gal(b1-4)GlcNAc(b1-2)[Gal(b1-4)GlcNAc(b1-4)]Man(a1-3)]Man(b1-4)GlcNAc(b1-4)[Fuc(a1-6)]GlcNAc
How it was run: as §1

[10] = target: Gal(b1-4)GlcNAc(b1-3)Gal(b1-3)GalNAc
How it was run: as §1

[11] = target: Gal(b1-4)GlcNAc(b1-3)Gal(b1-3)GlcNAc
How it was run: as §1

[12] = target: Gal(b1-4)GlcNAc(b1-3)Gal(b1-4)Glc
How it was run: as §1

[13] = target: Gal(b1-4)GlcNAc(b1-3)Gal(b1-4)GlcNAc
How it was run: as §1

[14] = target: Gal(b1-4)GlcNAc(b1-3)Gal(b1-4)GlcNAc(b1-2)Man(a1-3)[Gal(b1-4)GlcNAc(b1-3)Gal(b1-4)GlcNAc(b1-2)Man(a1-6)]Man(b1-4)GlcNAc(b1-4)GlcNAc
How it was run: as §1

[15] = target: Gal(b1-4)GlcNAc(b1-3)Gal(b1-4)GlcNAc(b1-2)Man(a1-3)[Gal(b1-4)GlcNAc(b1-3)Gal(b1-4)GlcNAc(b1-2)Man(a1-6)]Man(b1-4)GlcNAc(b1-4)[Fuc(a1-6)]GlcNAc
How it was run: as §1

[16] = target: Gal(b1-4)GlcNAc(b1-3)Gal(b1-4)GlcNAc(b1-2)[Gal(b1-4)GlcNAc(b1-3)Gal(b1-4)GlcNAc(b1-6)]Man(a1-6)[Gal(b1-4)GlcNAc(b1-3)Gal(b1-4)GlcNAc(b1-2)Man(a1-3)]Man(b1-4)GlcNAc(b1-4)GlcNAc
How it was run: as §1

[17] = target: Gal(b1-4)GlcNAc(b1-3)Gal(b1-4)GlcNAc(b1-2)[Gal(b1-4)GlcNAc(b1-3)Gal(b1-4)GlcNAc(b1-6)]Man(a1-6)[Gal(b1-4)GlcNAc(b1-3)Gal(b1-4)GlcNAc(b1-2)Man(a1-3)]Man(b1-4)GlcNAc(b1-4)[Fuc(a1-6)]GlcNAc
How it was run: as §1

[18] = target: Gal(b1-4)GlcNAc(b1-3)Gal(b1-4)GlcNAc(b1-3)Gal(b1-4)GlcNAc
How it was run: as §1

B1: PX9916F-bfa-443-24-443 (Bacteroides fragilis) (protein)
chain: DIRPVGSVIPQTAEEYRALLARAYLNVPNDRGLACLRSDEMLVNDNEYDRNSYGDIERWNDVSPFPGTSQFTWSNFYNVLFIANQVIESQKEITEGTPEVVNQLVGEAHLLRAYLHFVLVNLHGQPYTKSGALNSKSIPLKLDTDLEKTLGRNTVEEVYTSILSDIEHARELINKEKWETVFSYRFNVLSVDALQSRVSLYMGAWPKCLESAEAVLAKKSVLVDMNETPLALPNHFESVESITALEQVMGSSVNNAVWVPATFLALYQEGDKRLAAYFAAPDENGNRKSSKGGKREFSCTFRVGELYLNAAEAAANMDKLPHARMRLLELMRKRYTPEAYDKKENAVNVMDKNALISEILNERARELAFEGHRWFDLRRTTRPRMVKVLQGKTYILEQDDPRYTIPIPRDAIAANPGLAN
For B1, the “glycan array binding signal (z-score)” value [1] was -0.674, the “glycan array binding signal (z-score)” value [2] was -0.219 and the “glycan array binding signal (z-score)” value [3] was -0.78. For the same binder, the “glycan array binding signal (z-score)” value [4] was -0.646, the “glycan array binding signal (z-score)” value [5] was 0.053 and the “glycan array binding signal (z-score)” value [6] was -0.716. The “glycan array binding signal (z-score)” value [7] was -0.099, the “glycan array binding signal (z-score)” value [8] was -1.2 and the “glycan array binding signal (z-score)” value [9] was -1.05. The “glycan array binding signal (z-score)” value [10] was 0.112, the “glycan array binding signal (z-score)” value [11] was -1.19 and the “glycan array binding signal (z-score)” value [12] was -0.479. The “glycan array binding signal (z-score)” value [13] was -0.513, the “glycan array binding signal (z-score)” value [14] was 1.21 and the “glycan array binding signal (z-score)” value [15] was 0.44. The “glycan array binding signal (z-score)” value [16] was 0.786, the “glycan array binding signal (z-score)” value [17] was 2.26 and the “glycan array binding signal (z-score)” value [18] was -0.576.

Source: the supplement of paper PMC8728848
